These are yes or no findings as the source states them, for the method shown. In cells and extracts the contact can be indirect. A result given as binding can be weak or reduced; the word gives no strength. Tags and fused reporters may be left off the sequences shown.

Chains of the proteins cited; added tags and fusions are not shown. Lines headed by an entry give the natural chain unless they say otherwise; changes in a name come on top.
UniProt P40075: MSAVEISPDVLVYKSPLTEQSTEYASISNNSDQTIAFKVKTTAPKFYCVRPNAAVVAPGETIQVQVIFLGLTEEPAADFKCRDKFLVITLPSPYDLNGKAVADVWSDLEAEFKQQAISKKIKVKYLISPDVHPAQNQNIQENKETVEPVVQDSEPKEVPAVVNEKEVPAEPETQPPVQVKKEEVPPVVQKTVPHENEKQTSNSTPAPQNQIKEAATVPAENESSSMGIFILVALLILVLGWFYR

These results are taken from paper PMC519002.

In the test the target is T1, myc-tagged Opi1 (S. cerevisiae (endogenous locus, strains derived from CRY1)) (UniProt P21957).
T1 sequence: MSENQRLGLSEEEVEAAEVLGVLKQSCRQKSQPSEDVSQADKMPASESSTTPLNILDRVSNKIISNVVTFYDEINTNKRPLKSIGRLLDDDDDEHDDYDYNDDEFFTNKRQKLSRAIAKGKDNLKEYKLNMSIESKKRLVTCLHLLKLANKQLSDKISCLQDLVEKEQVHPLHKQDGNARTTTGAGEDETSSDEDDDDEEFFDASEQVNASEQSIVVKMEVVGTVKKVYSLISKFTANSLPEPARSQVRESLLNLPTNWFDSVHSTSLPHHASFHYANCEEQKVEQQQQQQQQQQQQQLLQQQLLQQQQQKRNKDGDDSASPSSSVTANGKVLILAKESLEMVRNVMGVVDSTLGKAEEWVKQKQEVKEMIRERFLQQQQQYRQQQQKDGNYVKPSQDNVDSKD
The experiment in a line: co-IP; microsomal fraction solubilized with 3% Triton X-100 in IP buffer; anti-myc agarose 4 h at 4 °C, five washes; total, supernatant and bound fractions blotted with anti-myc or anti-HA; strain with Scs2-HA alone as control.

“hemagglutinin (HA)-tagged Scs2 (from UniProt P40075)”: the binding entry is “binds”.
